Assay results: publication PMC3409120
These are yes or no findings as the source states them, for the method shown. Binding seen in cells or lysates may run through a third protein. These calls come from enrichment with a bait or labelling near it, and not all partners need be listed. No binding means not detected with the bait.

Molecular target: Schistosoma japonicum Argonaute protein Ago2 (native SjAgo2) (S. japonicum (endogenous in adult worms))
Experiment: affinity purification with mass spectrometry; native SjAgo2 captured from SWAP by mAb 27A9, 10% SDS-PAGE, bands excised, Orbitrap MS; second assay with sequential mock beads, normal mouse IgG and 27A9

B1: paramyosin (PMY) (protein, UniProt Q05870 1-866)
chain: MMNHDTESHVKISRTIYRGVSPSTTRLESRVRELEDILDLERDARVRAERHAADLSYQVDALSERLDEAGGSTTQTQELLKRREMEINKLRKDLENANASLELAETSMRRRHQTALNELSLEVENLQKQKGKAEKDKSHLIMEVDNVLGQLDGALKAKQSAESKLEGLDSQLNRLKTLTDDLQRQLTELNNAKSRLTSENFELLHINQDYEAQILNYSKAKSSLESQVDDLKRSLDDESRNRFNLQAQLTSLQMDYDNLQAKYDEESEEASNLRNQVSKFNADIAALKSKFERELMSKTEEFEEMKRKLTMRITELEDVAERERLKAVSLEKLKTKLTLEIKDLQSEIESLSLENGELIRRAKSAESLASELQRRVDELTIEVNTLTSQNNQLESENMRLKSLVNDLTDKNNALERENRQMNDQVKELKSSLRDANRRLTDLEALRSQLEAERDNLASALHDAEEALRDMDQKYQASQAALNHLKSEMEQRLRERDEELESLRKSTTRTIEELTVTITEMEVKYKSELSRLKKRYESSIADLEIQLDATNKANANLMKENKNLAQRVKDLETFLDDERRLREAAENNLQITEHKRIQLANEVEELRSAMENLERLRKHAETELEETQSRVSELTIQVNTLSNDKRRLEGDIGVMQADMDDAINAKQAAEDRATRLNNEVLRLADELRQEQENYKHAEALRKQLEIEIREITVKLEEAEAFATREGRRMVQKLQARVRELEAEFDGESRRCKDALAQARKFERQYKELQTQAEDDRRMVLELQDLLDKTQMKMKAYKRQLEEMEEVSQITMNKYRKAQQQIEEAEHRADMAERTVTVRRVGPGGRAVSVARELSVTSNRGMRATSMM
B1 was tested, and the binding was “no binding”.
